Measurements published in paper PMC7862700.
The list shows a part of the results, in another mix than the full data. For some assays here: At the low end of the ranking the order means little. Some of the results follow. For some assays here: The source does not settle which construct or isoform was used.

The chains behind the UniProt entries cited, without tags or fusion partners. Where a name states a change or a piece, a line headed by the entry shows the natural chain unless it says otherwise.
UniProt P50549: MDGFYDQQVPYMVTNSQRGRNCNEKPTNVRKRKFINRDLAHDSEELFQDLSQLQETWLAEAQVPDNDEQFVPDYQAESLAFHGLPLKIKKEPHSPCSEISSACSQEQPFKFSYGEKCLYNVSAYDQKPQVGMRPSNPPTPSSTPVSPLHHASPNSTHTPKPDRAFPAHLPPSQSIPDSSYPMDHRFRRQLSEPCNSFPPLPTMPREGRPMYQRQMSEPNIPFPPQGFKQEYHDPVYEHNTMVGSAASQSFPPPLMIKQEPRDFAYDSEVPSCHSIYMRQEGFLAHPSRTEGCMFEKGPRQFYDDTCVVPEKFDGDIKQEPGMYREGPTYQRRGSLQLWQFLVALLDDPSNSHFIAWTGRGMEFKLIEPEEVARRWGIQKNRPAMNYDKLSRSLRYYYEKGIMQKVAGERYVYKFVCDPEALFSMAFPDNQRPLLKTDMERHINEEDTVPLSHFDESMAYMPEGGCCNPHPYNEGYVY
UniProt P32519: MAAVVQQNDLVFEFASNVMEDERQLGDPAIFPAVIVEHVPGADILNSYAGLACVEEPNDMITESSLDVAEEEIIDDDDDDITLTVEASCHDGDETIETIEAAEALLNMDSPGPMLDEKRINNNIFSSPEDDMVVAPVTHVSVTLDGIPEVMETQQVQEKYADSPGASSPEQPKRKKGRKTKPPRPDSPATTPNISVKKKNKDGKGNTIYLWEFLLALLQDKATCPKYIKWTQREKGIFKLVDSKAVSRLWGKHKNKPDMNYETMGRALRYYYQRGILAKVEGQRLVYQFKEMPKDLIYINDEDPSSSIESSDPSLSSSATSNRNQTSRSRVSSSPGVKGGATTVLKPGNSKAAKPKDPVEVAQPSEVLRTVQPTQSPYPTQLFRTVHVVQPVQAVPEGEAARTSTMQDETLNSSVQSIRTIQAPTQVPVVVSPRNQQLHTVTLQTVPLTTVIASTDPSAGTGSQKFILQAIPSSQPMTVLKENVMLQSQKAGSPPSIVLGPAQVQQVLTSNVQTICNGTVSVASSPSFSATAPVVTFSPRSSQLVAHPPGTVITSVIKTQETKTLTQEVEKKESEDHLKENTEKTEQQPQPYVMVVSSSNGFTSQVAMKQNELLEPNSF

Assays:
Test in all cases: DAPPL (digital affinity profiling via proximity ligation, sequencing)
Conditions in all cases: 10 mM Tris-HCl pH 7.5, 50 mM NaCl, 1 mM DTT, 4% glycerol, room temperature, 30 min; GST-TFs on glutathione beads, 16-mer random dsDNA library, 0.1% …; high values mean tight binding; double strand, one strand shown; scale: fold enrichment (6-mer frequency, TF over GST control)
ELK4 = target: T1, ELK4 (UniProt P28324-2)
T1 sequence: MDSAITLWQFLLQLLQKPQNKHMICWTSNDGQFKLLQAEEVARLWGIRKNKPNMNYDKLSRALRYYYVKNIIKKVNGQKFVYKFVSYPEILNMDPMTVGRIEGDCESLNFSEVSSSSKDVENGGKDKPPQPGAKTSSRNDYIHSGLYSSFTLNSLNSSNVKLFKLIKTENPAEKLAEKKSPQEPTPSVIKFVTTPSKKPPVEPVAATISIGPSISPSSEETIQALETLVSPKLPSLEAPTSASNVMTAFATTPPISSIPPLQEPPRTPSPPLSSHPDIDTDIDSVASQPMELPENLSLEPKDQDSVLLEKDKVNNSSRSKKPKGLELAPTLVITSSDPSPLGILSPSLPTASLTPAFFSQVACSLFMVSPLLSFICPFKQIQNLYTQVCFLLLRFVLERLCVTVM

ETV4 = target: T2, ETV4 (UniProt P43268)
T2 sequence: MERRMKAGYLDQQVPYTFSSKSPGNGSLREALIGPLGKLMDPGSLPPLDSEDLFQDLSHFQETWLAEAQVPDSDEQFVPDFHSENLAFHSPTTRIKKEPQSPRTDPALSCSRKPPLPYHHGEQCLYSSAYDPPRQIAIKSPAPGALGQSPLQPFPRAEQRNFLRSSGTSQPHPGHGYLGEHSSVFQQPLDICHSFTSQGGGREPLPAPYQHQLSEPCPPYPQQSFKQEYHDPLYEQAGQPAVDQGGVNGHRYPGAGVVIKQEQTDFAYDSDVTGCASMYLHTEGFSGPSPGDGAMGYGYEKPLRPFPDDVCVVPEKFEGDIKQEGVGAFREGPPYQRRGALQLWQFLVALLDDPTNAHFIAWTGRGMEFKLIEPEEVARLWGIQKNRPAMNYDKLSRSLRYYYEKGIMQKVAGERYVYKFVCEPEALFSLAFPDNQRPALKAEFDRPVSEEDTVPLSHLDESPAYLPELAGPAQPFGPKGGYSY

ETV1 = ETV1 (UniProt P50549)
ERG = target: T3, ERG (UniProt P11308)
T3 sequence: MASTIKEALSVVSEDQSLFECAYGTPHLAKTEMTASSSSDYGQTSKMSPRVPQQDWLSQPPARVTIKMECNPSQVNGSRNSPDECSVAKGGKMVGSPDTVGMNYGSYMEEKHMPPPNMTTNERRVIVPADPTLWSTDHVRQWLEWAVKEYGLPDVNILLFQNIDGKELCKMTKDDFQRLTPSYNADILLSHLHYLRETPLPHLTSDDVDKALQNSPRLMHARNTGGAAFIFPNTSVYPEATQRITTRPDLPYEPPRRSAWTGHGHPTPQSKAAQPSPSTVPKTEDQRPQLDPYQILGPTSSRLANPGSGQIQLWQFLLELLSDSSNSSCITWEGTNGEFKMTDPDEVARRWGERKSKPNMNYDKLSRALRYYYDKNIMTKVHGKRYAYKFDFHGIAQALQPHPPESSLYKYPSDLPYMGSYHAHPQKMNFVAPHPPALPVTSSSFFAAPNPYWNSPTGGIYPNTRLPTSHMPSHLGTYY

ELF1 = ELF1 (UniProt P32519)
ERF = target: T4, ERF (UniProt P50548)
T4 sequence: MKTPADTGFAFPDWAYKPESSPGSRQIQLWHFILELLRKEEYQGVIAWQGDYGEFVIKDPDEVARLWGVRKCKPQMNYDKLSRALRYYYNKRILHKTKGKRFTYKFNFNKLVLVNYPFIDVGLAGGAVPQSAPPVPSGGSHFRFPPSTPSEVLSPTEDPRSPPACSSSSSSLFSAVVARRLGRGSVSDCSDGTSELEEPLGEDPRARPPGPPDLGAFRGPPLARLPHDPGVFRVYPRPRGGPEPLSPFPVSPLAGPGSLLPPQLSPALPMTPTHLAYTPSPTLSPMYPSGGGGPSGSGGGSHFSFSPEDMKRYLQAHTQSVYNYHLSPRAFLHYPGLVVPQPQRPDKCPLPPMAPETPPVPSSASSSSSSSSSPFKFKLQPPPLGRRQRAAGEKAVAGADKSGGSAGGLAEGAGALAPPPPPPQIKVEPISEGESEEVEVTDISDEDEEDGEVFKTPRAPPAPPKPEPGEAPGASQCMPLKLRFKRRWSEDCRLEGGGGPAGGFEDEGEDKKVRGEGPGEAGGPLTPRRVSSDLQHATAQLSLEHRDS

| Sequence | binding signal (ELK4) | binding signal (ETV4) | binding signal (ETV1) | binding signal (ERG) | binding signal (ELF1) | binding signal (ERF) |
| --- | --- | --- | --- | --- | --- | --- |
| GCACGC | 1.05 | 1.15 | 1.16 | – | – | – |
| GGCTTG | 1.12 | 1.13 | – | 1.09 | 0.973 | – |
| AGTAGC | 0.946 | 1.03 | – | 0.939 | 0.971 | – |
| CATAAA | 0.973 | 1.05 | – | 0.998 | 0.967 | 0.993 |
| TTGTCA | 1.21 | 1.17 | – | 0.978 | 1.13 | – |
| TAGACA | 1.11 | 0.987 | – | 0.918 | 0.991 | 0.994 |
| AGTAAA | 0.979 | 0.965 | – | 0.954 | 0.974 | – |
| ATTGAG | 0.969 | 1.02 | – | 0.978 | 1 | – |
| CTTTAT | 1.29 | 1.26 | 1.22 | – | – | – |
| GGCTCG | 1.11 | 1.06 | – | 1.02 | 1.05 | 0.987 |
| CGTTGG | 0.9 | 0.966 | – | 0.859 | 0.944 | – |
| GTCCTG | 0.974 | 1.14 | – | 1.17 | 1.15 | 1.08 |
| AGATCT | 0.848 | 0.967 | – | 0.932 | 1 | – |
| AAGATG | 1.22 | 1.15 | – | 1.11 | 1.09 | – |
| GGAAGA | 0.894 | 1.09 | – | 1.2 | 1.02 | 1.03 |
| TTCAGG | 1.19 | 1.14 | – | 1.12 | 1.1 | – |
| ATAGCC | 0.979 | 1.06 | – | 0.984 | 1.05 | – |
| TTACCA | 1.04 | 1.01 | – | 1.11 | 1.13 | – |
| GATTCG | 0.878 | 1.04 | – | 0.904 | 0.985 | 0.917 |
| TGGGAA | 0.936 | 1 | 0.956 | – | 0.993 | 1.04 |
| AGTACA | 1.07 | 1.14 | 1.11 | – | – | 1.06 |

At a glance, some entries already given.

| Sequence | binding signal (ELK4) | binding signal (ETV4) | binding signal (ETV1) | binding signal (ERG) | binding signal (ELF1) | binding signal (ERF) |
| --- | --- | --- | --- | --- | --- | --- |
| TTCAGG | 1.19 | 1.14 | – | 1.12 | 1.1 | – |
| ATAGCC | 0.979 | 1.06 | – | 0.984 | 1.05 | – |
| TTACCA | 1.04 | 1.01 | – | 1.11 | 1.13 | – |

More entries.

| Sequence | binding signal (ELK4) | binding signal (ETV4) | binding signal (ETV1) | binding signal (ERG) | binding signal (ELF1) | binding signal (ERF) |
| --- | --- | --- | --- | --- | --- | --- |
| CCGCAG | 0.991 | 1.09 | 0.961 | – | 1.01 | 1.12 |
| GAAATT | 1.17 | 1.18 | 1.28 | – | – | – |
| TGGCGA | 0.935 | 0.978 | 0.924 | – | 0.956 | 0.97 |
| GGTTAT | 0.989 | 1.04 | 0.989 | – | – | 0.904 |
| GTTAAA | 1.04 | 0.981 | 0.96 | – | 0.992 | 1.09 |
| AGAACC | 0.898 | 0.894 | 0.931 | – | 0.913 | 0.933 |
| GGATCT | 0.856 | 1.06 | 1.03 | – | 0.962 | 0.949 |
| CATGGC | 0.949 | 1.06 | 1 | – | – | 0.97 |
| CCACCG | 0.992 | 1.11 | 0.994 | – | – | – |
| GTACGA | 1.04 | 1.08 | 0.999 | – | 1.08 | 0.899 |
| CGGATC | 0.867 | 0.989 | 0.971 | – | 0.921 | 0.877 |
| ACTCAG | 0.916 | 1.04 | 0.947 | – | – | 0.848 |
| CCATGG | 0.991 | 1.01 | 0.967 | – | – | 0.999 |
| TTGATC | 1.14 | 1.28 | 1.15 | – | – | – |
| TGGAAC | 0.901 | 1.03 | 1.04 | – | – | 0.962 |
| AAGTGT | 1.21 | 1.39 | 1.39 | – | – | 1.24 |
| AGGATA | 0.95 | 0.998 | 0.933 | – | 0.964 | 0.989 |
| GACTAC | 1.18 | 1.13 | 1.17 | – | – | – |
| TTGCGA | 1.11 | 1.14 | 1.15 | – | – | 1.29 |
| CGGCTG | 0.898 | 1.13 | 0.91 | – | 0.958 | 0.958 |
| CCCGCG | 0.954 | 0.957 | 0.928 | – | 0.975 | 0.921 |

| Sequence | binding signal (ELK4) | binding signal (ETV4) | binding signal (ETV1) | binding signal (ERG) | binding signal (ELF1) | binding signal (ERF) |
| --- | --- | --- | --- | --- | --- | --- |
| TCCTGC | 1.36 | 1.63 | 1.6 | – | – | 1.43 |
| TGTATT | 1.33 | 1.42 | 1.4 | – | – | 1.36 |
| GTTATG | 1.23 | 1.18 | 1.14 | – | – | 1.05 |
| CCGCTG | 1.2 | 1.04 | 0.993 | – | – | 1.03 |
| ATAAGA | 1.11 | 1.07 | 1.1 | – | – | 1.14 |
| ACGGAA | 1.5 | 1.63 | 1.85 | – | – | 1.53 |
| CAAGCA | 1.14 | 1.07 | 1.1 | – | – | – |
| TGTGGC | 1.16 | 1.04 | 1.05 | – | 0.97 | 0.903 |
| ATATTG | 1.24 | 1.27 | 1.32 | – | – | 1.31 |
| CTAGAA | 0.998 | 1.01 | 0.937 | – | – | 1.28 |
| ATATCA | 1.16 | 1.18 | 1.14 | – | – | – |
| AGATTT | 1.25 | 1.15 | 1.15 | – | – | – |
| CTTTGG | 1.02 | 1.16 | 1.17 | – | – | 1.19 |
| AGACTT | 0.986 | 1.06 | 0.973 | – | – | 1.02 |
| AACAAG | 1.01 | 1.04 | 1.13 | – | – | 1.19 |
| TACAGA | 1.1 | 1.1 | 1.16 | – | – | – |
| AGGGAA | 0.849 | 0.88 | 0.951 | – | 0.911 | 0.929 |
| ATCCGT | 0.89 | 0.946 | 0.952 | – | 0.975 | 0.944 |
| TAGTGG | 1.37 | 1.3 | 1.14 | – | 1.28 | – |
